Values quoted from earlier work as cited in patent publication US11957684B2, “Treatment of heavy menstrual bleeding associated with uterine fibroids” (Sumitomo Pharma Switzerland GmbH, priority 2016, dated 2024).
Like-named read-outs stand apart in the source and are kept apart here. For at least one compound, name, drawing or mass did not settle the structure.

Details: cited from earlier work; for median (min, max) estradiol concentration: 150 mg

COc1cccc(-c2c(C)n(Cc3c(F)cccc3C(F)(F)F)c(=O)n(C[C@H](NCCCC(=O)O)c3ccccc3)c2=O)c1F [elagolix]
median estradiol level (150 mg (Diamond et al. 2014)): 30.3 pg/mL
median (min, max) estradiol concentration (week 4 (Acs et al. 2015)): 36.40 (4.5, 247.0)
median (min, max) estradiol concentration (week 8 (Acs et al. 2015)): 39.60 (6.8, 182.00)
median (min, max) estradiol concentration (week 12 (Acs et al. 2015)): 36.70 (2.5, 521.00)
